# According to paper PMC9630261:
# Construct, isoform or probe ends are uncertain for at least one entry. At least one verdict rests on a figure or table, not on a statement of the authors.
# Tested on: serum albumin (500 uM in PBS, gel)
# Experiment: EMSA (3% agarose)
# Conditions: 500 uM albumin in PBS, binding via C16 fatty acid, legend names D0-C16; phosphorothioate linkages; C16 (palmitic acid); Albumin titration: fluorescein quenching, buffer not stated separately (binding curves: 50 mM Na2HPO4, 100 mM NaCl, pH 7.00, 20 C); gel: 500 uM albumin in PBS; commercial protein; label: fluorescein (FAM)
sequence,measurement,value
CGCGCGCGCGCG (double strand) [D0-PS-FAM-C16],binding result,binds
